Values of other authors in EP3155636B1, “A PROBE FOR EXTRACTION OF MOLECULES OF INTEREST FROM A SAMPLE” (JP Scientific Limited, priority 2014, dated 2015).

System: plasma proteins
Details: given to explain the higher LOQ in plasma

CN1C(=O)CN=C(c2ccccc2)c2cc(Cl)ccc21 [DZP, diazepam]
bound to plasma proteins: 98%
